Laboratory results published in PubChem BioAssay AID1347426 (Functional Genomics Laboratory (NCATS/FGL), 2020).
Among all 31,000 sequences or so, about 1,400 (4.5%) were called active.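 How the source made its calls: active means median seed-adjusted z-score above 1 or below -1; inactive means the rest.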 The list shows a part of the results.

Assay: Novel Modifiers of Survival Motor Neuron (SMN) Protein: Gene Identification via Genome-wide siRNA Screen;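 further: luminescence tracks full-length SMN protein made from the SMN2 reporter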
Details: HEK293T SMN2-luciferase reporter, siRNA knockdown, 72 h; actives lie on both sides
Outline: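 Luciferase signal, proportional to full-length SMN made from an SMN2 cDNA reporter in stable HEK293T cells, was read 72 h after siRNA reverse transfection. Values were expressed as MAD scores after non-targeting-control normalization and log10 conversion; seed analysis flagged off-targets.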
For GUAUGAGGGUCAUAUUGAATT against MAST2, the median seed-adjusted z-score was inactive: 0.27.
For GGAGAGUCAUUGUUUGCAATT against LGALS3, the median seed-adjusted z-score was inactive: 0.14.
In the case of GCACUGUCGUAGCUGAGAATT against CORO1A, the median seed-adjusted z-score is reported as inactive: 0.569.
For GACUGAUGAUGGUCAAGGATT against FMR1, the median seed-adjusted z-score was inactive: 0.504.
In the case of GCAAUUGUCAUAAAACCAATT against ATM, the median seed-adjusted z-score is reported as inactive: 0.22.
In the case of AACAAUCUGUGACUAUUAATT against SKP1, the median seed-adjusted z-score is reported as inactive: -0.0492.
In the case of GAGCCGGUGUCUUCAGAUATT against CASQ2, the median seed-adjusted z-score is reported as inactive: 0.4.
In the case of GGACUUUAUUCGGAAGCUUTT against DAPK2, the median seed-adjusted z-score is reported as inactive: 0.268.
With CACUUGUGAUGAUAAGGUATT against ENPP2 the median seed-adjusted z-score was inactive: -0.305.
With GGUAAAAGCUCAAAUGAAUTT against TUBB2B the median seed-adjusted z-score was inactive: 0.935.
For CAGUCACGCUUUAAUAAGATT against MST101, the median seed-adjusted z-score was inactive: -0.293.
For AGAUGAAAUUCUCGGAGAATT against SSX6, the median seed-adjusted z-score was inactive: -0.493.
In the case of UCACGCUGAUGCUCACUGATT against SPHK1, the median seed-adjusted z-score is reported as inactive: -0.249.
For GCACCUUGCAGGAUUGGAATT against PEAR1, the median seed-adjusted z-score was inactive: 0.071.
In the case of GGUAAAACCUGACCUGGUATT against DTX4, the median seed-adjusted z-score is reported as inactive: 0.409.
For CGGGUGAAUUUAUUCGAAATT against FBXW7, the median seed-adjusted z-score was inactive: 0.
For CAACAGGAGGAAGACUUUATT against HMMR, the median seed-adjusted z-score was inactive: 0.389.
For GAUCCUAAUGGAAAAGGUATT against GRK7, the median seed-adjusted z-score was inactive: 0.288.
For GAACUACAAGUAUCCUGAATT against EPB42, the median seed-adjusted z-score was inactive: -0.294.
In the case of GCCGUUCUCUUGCUGGACATT against JRK, the median seed-adjusted z-score is reported as inactive: -0.624.
For GAUUCUACUGUCUUACUAATT against HIATL1, the median seed-adjusted z-score was inactive: 0.327.
For AUACAGAUGUACAAGGAAATT against PTCH2, the median seed-adjusted z-score was inactive: -0.191.
In the case of CCCAACUACUGAGCUGAGATT against CD151, the median seed-adjusted z-score is reported as inactive: -0.0305.
For ACCUUAAACCACCAUUUAUTT against METTL2B, the median seed-adjusted z-score was inactive: 0.769.
For GCAUCGUCAAGGAUUGGAATT against ACTR1A, the median seed-adjusted z-score was active: 1.28.
With GGUGUUGAUUACAGAGUGATT against ARHGDIG the median seed-adjusted z-score was inactive: 0.227.
With CGAUCUCAUGGUUUCGGGATT against NCAM1 the median seed-adjusted z-score was inactive: 0.
In the case of CCACCGCUGUUGAAUACAATT against ZNF658, the median seed-adjusted z-score is reported as inactive: 0.091.
With ACUCUACCCUGACACCUCATT against ERAF the median seed-adjusted z-score was inactive: 0.0453.
With GCAAAGAUCCCAUACGUCATT against SLC2A9 the median seed-adjusted z-score was inactive: 0.216.
In the case of AGAUUAUAGAGGAAAUGUUTT against DUT, the median seed-adjusted z-score is reported as inactive: -0.0833.
With GCACUUCUUUUACAUCCAUTT against XYLT2 the median seed-adjusted z-score was inactive: 0.148.
With GGAUCCAGGAUAACGGAGGTT against BCL2 the median seed-adjusted z-score was inactive: 0.
In the case of GUGACGGCUUUAGACCUGATT against PRTFDC1, the median seed-adjusted z-score is reported as inactive: 0.493.
In the case of GAACAGUGAUGACAUGUCUTT against CIB4, the median seed-adjusted z-score is reported as inactive: -0.638.
With AGAACAUCCUGAUAGACCUTT against PIM2 the median seed-adjusted z-score was inactive: 0.00597.
With GCUCCUUUCUUAUCAGAGATT against BLK the median seed-adjusted z-score was inactive: -0.274.
For GGAUGUCUAUGAGACCGGATT against ADAMTSL2, the median seed-adjusted z-score was inactive: 0.806.
For GAGCAUUCCUUUUCGAUCATT against DHRS7B, the median seed-adjusted z-score was inactive: 0.294.
For GACCAUCUUUCACGAAUAUTT against MAP3K9, the median seed-adjusted z-score was inactive: -0.498.
In the case of GCACUGUACUCAGCUCUGUTT against SLC7A7, the median seed-adjusted z-score is reported as inactive: 0.209.
With GAGCAGAUCGAGAUCAAAATT against EVI5L the median seed-adjusted z-score was inactive: 0.0497.
In the case of AGAGGACUUCGCUCGCUUATT against LGI4, the median seed-adjusted z-score is reported as inactive: -0.239.
With GCUUAUUCUGUACAGUAAATT against GPR103 the median seed-adjusted z-score was inactive: 0.
With GAGGAUCACUGCAAAGGGATT against NECAP2 the median seed-adjusted z-score was inactive: -0.539.
For GGAUUUGGAAUGACGGGAATT against GABRG3, the median seed-adjusted z-score was inactive: 0.
For GGAACAUCUUUAACCGAAUTT against AIFM1, the median seed-adjusted z-score was inactive: 0.0499.
In the case of CAUUCUGACCGUGAACAAUTT against CTRB1, the median seed-adjusted z-score is reported as inactive: -0.214.
For GACCAUGACUGAUGCUUAUTT against DUSP10, the median seed-adjusted z-score was inactive: 0.28.
With ACAAGUACCAGGUCAACAATT against HRASLS3 the median seed-adjusted z-score was inactive: 0.085.
With CCAUAAUGAUAGAGUUUAATT against SLC24A4 the median seed-adjusted z-score was inactive: 0.0358.
With CGAACUUGUCUAAAUCAUATT against IRX1 the median seed-adjusted z-score was inactive: 0.673.
With GAAUUUGCUCGCUACACUATT against GNAS the median seed-adjusted z-score was inactive: -0.531.
In the case of GUGUUGGAAUGAAGCUAGATT against NR5A2, the median seed-adjusted z-score is reported as inactive: -0.275.
With GGUCCAAGCUGUUGCUGUUTT against DARC the median seed-adjusted z-score was inactive: 0.0814.
With CAUCCAUAAUGUACGUGAATT against ITGAE the median seed-adjusted z-score was inactive: -0.0378.
With GCUUUGACCGUGAUUCUUATT against EREG the median seed-adjusted z-score was inactive: 0.29.
With CGAUAACUGUAGUUGGAGATT against PRPSAP1 the median seed-adjusted z-score was inactive: 0.224.
With CCAAAAGAUCGUUCACUCATT against GABRR2 the median seed-adjusted z-score was inactive: 0.
For GCAAGAGACAUAUCCACAATT against L1CAM, the median seed-adjusted z-score was inactive: 0.
For GACAAUCGACCGAAAGCAATT against PPP4C, the median seed-adjusted z-score was active: 1.15.
In the case of GCGAAUUCCUGAUAUAGUUTT against AGPS, the median seed-adjusted z-score is reported as inactive: 0.289.
In the case of CAAUGGAUGUGCAAGCAUUTT against PRKAR2B, the median seed-adjusted z-score is reported as inactive: -0.777.
In the case of ACCUGGUGGUGUCAACUCATT against PTOV1, the median seed-adjusted z-score is reported as inactive: 0.115.
In the case of CUAUCGCUAUGGGAUAAAATT against CHD4, the median seed-adjusted z-score is reported as inactive: 0.625.
For GCUUAUGAUUGAUACACCUTT against ATP11B, the median seed-adjusted z-score was inactive: 0.0036.
In the case of GAAUAGAGCCGCGUACAUATT against CLCA4, the median seed-adjusted z-score is reported as inactive: 0.186.
With GGGUACAAGUUACCUAAUATT against TDRD6 the median seed-adjusted z-score was inactive: 0.
In the case of GACUAUGAGUUCAUGUGGATT against CKB, the median seed-adjusted z-score is reported as inactive: -0.236.
